From US20030049715A1, “Peptide biomarker and method of identification” (priority 2001, published 2003)
No end group written: not given here.

Assay: LC-MS-MS quantification of collagen type II peptide biomarker in human urine
Conditions: FIG. 9, post-translation analog with 4-hydroxyproline at positions 14 and 26
Source text: A biological specimen, for example urine, is collected from the subject. The peptide, which can be referred to as the subject or target peptide, having the appropriate mass, for example m/z 918.7 for (M+3H)3+ (SEQ ID NO: 3) is extracted from the sample using procedures known to the art. See Example 4, below. The sample is spiked with a known quantity of a synthetic peptide (known as the internal standard) having a sequence very similar to the target peptide sequence. For example, peptide […](SEQ ID NO. 14), may be used as an internal standard. […] Comparison of the abundance of the target peptide (area under peak) to the abundance of a standard, normalized by the abundance of an internal standard indicates a relative quantity of target peptide in the sample. More particularly, the area under the curve representing the abundance of the standard peptide is compared to the area under the curve representing t he abundance of the target peptide to obtain a relative quantity of target peptide in a sample. […] Of course, acceptable methods of quantifying the target peptide in a biological sample are encompassed by the scope of the invention. A general quantitation procedure for collagen type II peptide biomarker in human urine is set out below in Example 4 as a representative procedure. […]
7. Solutions are analyzed by LC/MS/MS […]

Sequence: LQGPAGPPGEKGEPGDDGPSGAEGPPGPQG [SEQ ID NO: 2, human collagen type II degradation peptide in urine]
- relative abundance of the peptide in urine (human subject diagnosed with and demonstrating signs and symptoms of osteoarthritis): 8000
- relative abundance of the peptide in urine (urine from normal humans (not detected)): 0
